Test system: lower arm musculature
Test: Intermittent test with the lower arm musculature, blood tests and acid-base status
Format: in vivo, human
Procedure: In a double-blind study, creatine pyruvate (A) and placebo (B) were tested. The male experimental subjects (n=32; age: 18 to 32) were divided into groups, each of n=16, so that the maximum oxygen consumption per kilogram of body weight was on average the same in the groups, and the types of sport undertaken were usually distributed the same as far as possible. This led to the fact that the mean strength in the intermittent studies was not the same. The test subjects of group A were administered 5.0 g of creatine pyruvate per day over a period of 28 days. The initial test (IT) was carried out on the 1st day, and the closing test (CT) on the 29th day.
The arm of the seated test subjects is positioned extended (horizontally) at the side at shoulder height. The hand lies on an adjustable-weight gripper (stroke length: 3 cm). The arm is supported at the elbow. The test subjects must perform highly intensive intermittent work, for which they compress the adjustable-weight gripper at the maximum possible frequency. The weight in the basket is 80% of the maximum weight achieved in a preliminary test in which the load, starting at 7.5 kg, is increased by 2.5 kg every 3 minutes. The contraction frequency is 24/min. The maximum weight is reached when the 3 cm stroke length can no longer be overcome. Blood is taken from the cubital vein on the working arm. The skin blood flow is reduced by cooling. Blood was taken in each case before and after the 1st, 2nd, 6th, 9th and 10th period.

creatine pyruvate was tested, and the “HBO2 at the end of the interval pauses” value (in vivo) was “significantly lower”, the “Blood parameters not associated with the acid-base status” value (initial test vs closing test) was “no significant difference” and the “Absolute values of pH, pCO2, lactate and BE” value (initial vs closing test) was “no significant differences”. The “Change of pCO2 during the working phase” value (initial vs closing test) was “tendency to be greater” and the “Pooled pCO2 differences between measurements before and after intervals 2, 6, 9 and 10” value (p<0.05) was “greater difference”.
